{"source": "patent US20240398771A1", "about": "“TREATMENT OF SCLERODERMA AND RAYNAUD'S SYNDROME” (Aisa Pharma, Inc., priority 2023, published 2024)", "type_in_all_cases": "in vivo, human", "key": {"[1]": {"test_system": "participants with SSc-RP", "test": "Frequency of weekly symptomatic RP attacks (patient diary), Phase 2a Part A", "procedure": "(§1) Part A—Double-blind, Placebo-controlled, Parallel-group, Dose selection, will assess the safety and efficacy of two doses of cilnidipine (10 mg and 20 mg), alone and in combination with tadalafil. A total of 36 participants will be randomized to one of six pre-specified treatment arms. See Example 3 for data obtained in this phase of the study thus far, on 11 participants.\n(§2) Please refer to FIG. 1 for treatment arms in Part A of the study. Dosing lasted or will last for 12 (±2) days in which participants self-administered or will self-administer daily doses of assigned treatment in the morning. Each participant took or will take one capsule and one tablet to blind the active therapy being received.\n(§3) The relevant metrics measured by this tool daily are: • Study medication • SSc-RP symptoms (Reporting an attack including duration of attack) • Severity of the attack considering all symptoms of the attack e.g. tingling, numbness, pain, color changes (VAS 0-10 cm scale) • Participant's location at the time of the attack (inside home/outside home) • Selecting symptoms experienced during the attack (tingling, numbness, pain, color changes, other) • Pain rating during the attack (11-point Likert scale) • The RCS based on how much difficulty participants had with Raynaud's today, how many attacks the participant had, and how long they lasted. […]"}, "[2]": {"test_system": "participants with SSc-RP", "test": "Frequency of weekly RP attacks, all attacks (patient diary; primary endpoint)", "settings": "summary table", "procedure": "as §1, §2, §3"}, "[3]": {"test_system": "participants with SSc-RP", "test": "Average duration of weekly symptomatic RP attacks (minutes)", "settings": "Example 3; during treatment", "excerpt": "The relevant metrics measured by this tool daily are: • Study medication • SSc-RP symptoms (Reporting an attack including duration of attack) • Severity of the attack considering all symptoms of the attack e.g. tingling, numbness, pain, color changes (VAS 0-10 cm scale) • Participant's location at the time of the attack (inside home/outside home) • Selecting symptoms experienced during the attack (tingling, numbness, pain, color changes, other) • Pain rating during the attack (11-point Likert scale) • The RCS based on how much difficulty participants had with Raynaud's today, how many attacks the participant had, and how long they lasted. Participants will also be asked to consider how much pain, numbness, or other symptoms the Raynaud's caused in fingers (including painful sores), and how much the Raynaud's alone affected the use of hands today (VAS 0-10 cm scale).\nThe absolute change in average duration of weekly RP attacks from baseline to the end of each dosing period was and will be a secondary outcome variable. The sponsor-developed participant-informed diary was and will be used to record data. Average duration of weekly RP attacks is defined as the total duration of RP attacks divided by total number of RP attacks within the last 7 days of each dosing period. […] The variable will be calculated similar to frequency data as before."}}, "note": "“Also recorded” adds a separate entry of the source. At least one compound was matched to its structure with a doubt left."}
{"compound": "CN1CC(=O)N2[C@H](c3ccc4c(c3)OCO4)c3[nH]c4ccccc4c3C[C@@H]2C1=O", "note": "[Tadalafil]", "values": [{"measurement": "weekly frequency of Raynaud attacks, direction of change", "setting": "[1]; Example 3, first 11 patients of Part A, vs baseline", "value": "increase in attack frequency; also recorded: frequency of attacks increased"}, {"measurement": "weekly frequency of attacks, direction of change", "setting": "[1]; Example 3, baseline Raynaud Condition Score >5.0", "value": "increased the frequency of attacks"}, {"measurement": "Tadalafil 10 mg helps", "setting": "[2]", "value": "mg helps"}, {"measurement": "duration of Raynaud attacks, direction of change", "setting": "[3]", "value": "increase in the duration"}]}
